This is one part of the list. The main result of the screen is listed elsewhere. These columns were measured beside it and carry no call. Most of these compounds were active or inconclusive in the main read-out, so they are no random draw. Potencies come from curve fits of mixed quality, noted in brackets.
Assay: qHTS Assay for Lipid Storage Modulators in Drosophila S3 Cells;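 on cell number change: cells counted by Cell Tracker Red CMTPX staining in the red channel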
Conditions: BODIPY lipid droplet fluorescence, 18-24 h; for cell number change: measured here: cell count max response, cells fed with added oleic acid
Outline: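 Drosophila S3 cells got compounds at several concentrations plus oleic acid (400 uM solution). Laser-scanning cytometry with 488 nm excitation read lipid droplets at 500-530 nm and cells at 575-640 nm. Percent activity was relative to 20 uM Triacsin C.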

[1] = measured here: cell number channel AC50, cells fed with added oleic acid
[2] = measured here: lipid fluorescence (Fed channel) AC50, cells fed with added oleic acid

Row | SMILES | cell number change | AC50 [1] | AC50 [2]
1 | CCCN(CCC)C(=O)CP(=O)(c1ccccc1)c1ccccc1 | -24.7% | 0.13 µM [falling, full curve, poor fit] | 0.13 µM [falling, full curve, poor fit]
2 | CCCn1cc(CN2CCCC(CNC(=O)c3ccc(F)cc3)C2)c(C)n1 (stereo unspecified) | -0.409% |  | 6.51 µM [falling, single point]
3 | c1ccc(CC2CCN(C(c3cccs3)c3nnnn3C3CCCC3)CC2)cc1 (stereo unspecified) |  | 0.092 µM [rising, full curve, poor fit] | 
4 | CSc1ccc(S(=O)(=O)Nc2ccc(NC(C)=O)cc2)cc1 | -3.92% |  | 10.3 µM [rising, single point]
5 | Cc1nn(CC(=O)c2ccccc2)c(=O)c2nn(-c3ccccc3F)c(C)c12 | 5.2% |  | 
6 | COc1ccc(CCNCC(O)Cn2c3ccccc3c3ccccc32)cc1OC (stereo unspecified) | -31% |  | 29.1 µM [falling, single point]
7 | Cc1ccccc1S(=O)(=O)NC1OC(=O)C(Cl)=C1Cl (stereo unspecified) | -24.2% |  | 0.116 µM [falling, full curve, poor fit]
8 | COc1ccc(-n2nc(C(=O)NCC(=O)NCC3CCCO3)c3ccccc3c2=O)cc1 (stereo unspecified) |  | 0.164 µM [rising, full curve, poor fit] | 
9 | C=CCn1c(N)c(C(=O)OC(C)(C)C)c2nc3ccccc3nc21 | 38.8% | 29.1 µM [rising, single point] | 0.58 µM [rising, full curve, poor fit]
10 | COc1cc(NC(=O)c2ccco2)c(OC)cc1NC(=O)CCC(=O)Nc1cc(C)cc(C)c1 | 15.5% |  | 23.1 µM [rising, partial curve]
11 | CC12CCC(=O)N1C(C(=O)NCc1ccccc1Cl)CS2 (stereo unspecified) | 5.89% |  | 29.1 µM [rising, single point]
12 | CCc1ccc(/C(C)=N/NC(=O)CNC(=O)/C=C/c2ccccc2OC)cc1 | -6.72% |  | 
13 | COc1ccc(Cl)cc1NC(=O)CN(C)C(=O)Cc1ccsc1 |  | 7.31 µM [rising, single point] | 14.6 µM [falling, partial curve]
14 | O=C(Nc1ccc(F)cc1)C(Sc1nnc2ccccn12)c1ccccc1 (stereo unspecified) |  |  | 16.4 µM [rising, single point]
15 | CCn1c2ccccc2c2cc(NC(=O)CSc3nnc(-c4ccc(OC)cc4)n3N)ccc21 | -38.1% | 32.6 µM [falling, partial curve, poor fit] | 0.058 µM [falling, full curve, poor fit]
16 | O=C(CN1CCN(CC(=O)Nc2ccccc2Cl)CC1)Nc1ccc(F)c(F)c1 | -6.31% |  | 
17 | CCCCCn1c(SCC(=O)OC)nc2c1c(=O)[nH]c(=O)n2C | -40.2% | 2.31 µM [falling, partial curve, poor fit] | 0.366 µM [rising, full curve]
18 | CC(=O)N1C(C(=O)O)CSC1c1ccc(C)cc1 (stereo unspecified) | 13.1% |  | 
19 | COC(=O)C1CCCCN1C(=O)c1cc(COc2cccc3cnccc23)on1 (stereo unspecified) | -61% | 4.61 µM [falling, partial curve] | 3.66 µM [falling, full curve]

Row | SMILES | cell number change | AC50 [1] | AC50 [2]
20 | COc1ccc(N2CCN(CC(=O)Nc3sccc3C#N)CC2)cc1 | 40% | 0.517 µM [rising, full curve, poor fit] | 
21 | CN(C)C(C)(C)C#CCC(c1ccccc1)c1ccccc1 | 12.7% |  | 0.184 µM [rising, full curve, poor fit]
22 | CCN(CC)c1ccc(CNc2ccc3c(c2)ncn3C(C)(C)C)cc1 | -31.5% |  | 32.6 µM [falling, single point]
23 | O=C(OCC(=O)N1CCCC1=O)c1cc(Cl)ccc1O | -26.5% |  | 0.13 µM [falling, full curve, poor fit]
24 | COc1cc(NS(=O)(=O)c2ccc(NC(=O)CN3C(=O)c4ccccc4C3=O)cc2)nc(OC)n1 | 31.5% | 8.2 µM [rising, partial curve] | 
25 | Cc1cc(C)c(C)c(S(=O)(=O)Nc2ccc(OCC(=O)O)cc2)c1C | 9.42% |  | 0.103 µM [falling, full curve, poor fit]
26 | C[N+]1(CCNC(=O)/C=N/O)CCCCC1 | -21.7% |  | 7.31 µM [falling, single point]
27 | CC(C)C1Oc2ccccc2N(CC(=O)N(C)C2CCCCC2)C1=O (stereo unspecified) | -5.13% |  | 
28 | COC(=O)c1cccc(Nc2ccc([N+](=O)[O-])cn2)c1 | 27.9% |  | 2.06 µM [rising, partial curve]
29 | CCC(C(=O)NC1CCCC1)N(C(=O)c1snc(C(N)=O)c1N)c1ccc(OC)cc1 (stereo unspecified) | 29.1% |  | 6.51 µM [rising, single point]
30 | CCCCN(C(=O)C1=NN(c2cc(C)ccc2C)C(=O)CC1)c1c(N)n(CCC)c(=O)[nH]c1=O | 1.1% |  | 0.13 µM [falling, full curve, poor fit]
31 | CCCCc1c(C)c2cc(C)ccc2[nH]c1=O |  | 2.06 µM [rising, partial curve] | 0.291 µM [rising, partial curve, poor fit]
32 | O=C(NCc1ccc(F)cc1)C1CCC(CNc2c(N3CCCCC3)c(=O)c2=O)CC1 (stereo unspecified) | 7.69% |  | 20.6 µM [falling, single point]
33 | CCCOC(=O)c1ccc(Nc2nc(C)cc(=O)[nH]2)cc1 | -33.8% | 32.6 µM [falling, single point] | 
34 | COc1ccc(C(NC(=O)CNC(C)=O)C(=O)Nc2ccc(C(C)C)cc2)cc1 (stereo unspecified) | -16.9% |  | 0.13 µM [falling, full curve, poor fit]
35 | CCOC(=O)C(C(C)=O)C(c1ccc(OCCC(C)C)cc1)C(C(C)=O)C(=O)OCC (stereo unspecified) | -12.1% |  | 1.64 µM [falling, partial curve, poor fit]
36 | N=c1c(C(=O)NCCN2CCOCC2)cc2c(=O)n3ccccc3nc2n1Cc1ccc(F)cc1 | 3.54% |  | 
37 | CCOC(=O)c1sc(NC(=O)c2cccc(S(=O)(=O)N3c4ccccc4CC3C)c2)cc1C (stereo unspecified) |  |  | 23.1 µM [rising, single point]
38 | CCOC(=O)c1cc(C(=O)OCC)cc(-n2cc(O)c(C(=O)OCC)n2)c1 | -28.7% |  | 29.1 µM [falling, single point]

Single values from the list.
Under cell number change, CCCCN(C(=O)C1=NN(c2cc(C)ccc2C)C(=O)CC1)c1c(N)n(CCC)c(=O)[nH]c1=O is listed with 1.1%
Under AC50 [1], COc1ccc(-n2nc(C(=O)NCC(=O)NCC3CCCO3)c3ccccc3c2=O)cc1 (stereo unspecified) is listed with 0.164 µM [rising, full curve, poor fit]
Under cell number change, O=C(OCC(=O)N1CCCC1=O)c1cc(Cl)ccc1O is listed with -26.5%

Reference: PubChem BioAssay AID2685 (National Center for Advancing Translational Sciences (NCATS), 2010)
